Laboratory results: PubChem BioAssay AID504791 (Drosophila RNAi Screening Center, 2011)
The screen tested about 23,000 reagents; this is an unselected part of those that have a named target and a result. Over the whole deposit, 199 (0.86%) are marked active. 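Plate-scaled ratios behind the calls are not deposited; printed light signals are raw; many rows marked increased or decreased are still called inactive.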 A plus sign joins genes that one reagent is predicted to hit.

- Aim: 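Genes whose knock-down strengthens or weakens small-RNA reporter silencing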 (primary screen)
- System: Drosophila S2-derived reporter cells
- Knock-down reagent: long dsRNA against Drosophila genes, about 150-250 ng dsRNA per well (siRNA assay); about 80-120 ng (miRNA assay)
- Duration: about 5 days (siRNA assay); about 4 days (miRNA assay)
- Challenge: copper sulfate induction of reporters: 25 µM (siRNA assay); 200 mM stated (miRNA assay), 1-2 days before reading
- Measured: 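Dual luciferase assay: Renilla to firefly signal ratio in each well, scaled to the mean ratio of its plate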
- Direction: siRNA reporter hit score: higher = 3 marks a strong hit with raised ratio; -3 a strong hit with lowered ratio
- Rule for the call: 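a well was a first-pass pick when its plate-scaled ratio rose above 1.5 (siRNA assay) or 1.6 (miRNA assay), or dropped below 0.6; a gene counted only if two separate dsRNAs agreed on retest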

no.	gene	PubChem SID	siRNA reporter hit score	stable siRNA reporter change	miRNA reporter change	stable assay Renilla, run 1 (luminescence)	stable assay firefly, run 1 (luminescence)	outcome
1	CG16863	SID104181684				6858	3.84e5	inactive
2	Scamp	SID104200078				5219	4.94e5	inactive
3	CG10317	SID104194021				7508	3.34e5	inactive
4	Inx2 (Innexin 2)	SID104198575				7650	3.68e5	inactive
5	CG34047 (retired record)	SID104187649				6036	4.44e5	inactive
6	CG34047 (retired record)	SID104201370				8684	4.41e5	inactive
7	VGlut (Vesicular glutamate transporter)	SID104180525				3932	3.54e5	inactive
8	VGlut (Vesicular glutamate transporter)	SID104201473				8884	4.60e5	inactive
9	CG13258	SID104182036				7527	4.06e5	inactive
10	CG2887	SID104198027				4727	3.84e5	inactive
11	Sys1 (Sys1 golgi trafficking protein)	SID104194164				6872	4.35e5	inactive
12	CR18275 + CR18166 + CG32817	SID104197041				6835	3.70e5	inactive
13	CG30195	SID104183947				5999	3.52e5	inactive
14	NimC3 (Nimrod C3)	SID104183348				6647	2.93e5	inactive
15	NimC3 (Nimrod C3)	SID104201971				4803	5.82e5	inactive
16	Cp110 (Centriolar coiled coil protein 110kDa)	SID104200422				6932	4.42e5	inactive
17	Cp110 (Centriolar coiled coil protein 110kDa)	SID104201390				8458	4.95e5	inactive
18	CG18754	SID104195179				7662	5.46e5	inactive
19	Cpr67Fa1 (Cuticular protein 67Fa1)	SID104190724				5091	3.20e5	inactive
20	CG32440	SID104191272				5771	4.57e5	inactive
21	CG5065	SID104186704				5659	2.71e5	inactive
22	mus81	SID104197972				5251	2.96e5	inactive
23	mus81	SID104198436				5579	3.81e5	inactive
24	CG9263	SID104182968				6770	3.72e5	inactive
25	CG34231	SID104185115				6916	3.91e5	inactive
26	CG4686	SID104195414				7594	4.09e5	inactive
27	peo (pendolino)	SID104185787				7790	3.84e5	inactive
28	CG33467	SID104185317				3903	3.22e5	inactive
29	CG33467	SID104202054				4004	4.29e5	inactive
30	IntS14 (Integrator 14)	SID104180460	-3	reporter ratio raised past the hit cutoff	reporter ratio raised past the hit cutoff	37590	2.26e5	active
31	CG8236	SID104196191				7663	5.60e5	inactive
32	Duba (Deubiquitinating enzyme A)	SID104190374				10246	4.95e5	inactive
33	CG3726	SID104198112				4547	2.98e5	inactive
34	CG3726	SID104202500				4980	3.07e5	inactive
35	SLO2 (slowpoke 2)	SID104186004		reporter ratio raised past the hit cutoff		4991	1.68e5	inactive
36	SLO2 (slowpoke 2)	SID104186006				7411	4.68e5	inactive
37	SLO2 (slowpoke 2)	SID104186008				6896	4.53e5	inactive
38	SLO2 (slowpoke 2)	SID104186010				6774	3.74e5	inactive
39	SLO2 (slowpoke 2)	SID104186011				5278	2.10e5	inactive
40	SLO2 (slowpoke 2)	SID104202582				4071	2.40e5	inactive
41	Or94b (Odorant receptor 94b)	SID104196565				6999	3.47e5	inactive
42	CR31958 (pseudo)	SID104180074				6826	4.05e5	inactive
43	CR31958 (pseudo)	SID104201499				8571	6.35e5	inactive
44	Blos2	SID104189939				6726	3.93e5	inactive
45	Crag	SID104198246				8610	4.62e5	inactive
46	PIG-K (Phosphatidylinositol glycan anchor biosynthesis class K)	SID104198288				7615	4.26e5	inactive
47	Mitf	SID104197004				6304	4.09e5	inactive
48	Mitf	SID104200848				5231	4.14e5	inactive
49	dsx (doublesex)	SID104192441				5811	3.57e5	inactive
50	dsx (doublesex)	SID104196726				4627	3.41e5	inactive
51	dsx (doublesex)	SID104201224				7414	4.19e5	inactive
52	babo (baboon)	SID104187373				6732	4.01e5	inactive
53	Ssl (Suppressor of Stellate-like)	SID104184449				6376	3.36e5	inactive
54	Rnf11 (Ring finger protein 11)	SID104201284				8263	3.89e5	inactive
55	CG17186	SID104194972				8329	5.00e5	inactive
56	Hcf (Host cell factor)	SID104196935				7703	4.69e5	inactive
57	fws (four way stop)	SID104182761				24915	2.35e6	inactive
58	mnd (minidiscs)	SID104191162				7527	3.30e5	inactive
59	cola + swif	SID104186618				6658	2.90e5	inactive
60	cola + swif	SID104201576				9634	5.89e5	inactive
61	CG11313	SID104194087				6403	3.77e5	inactive
62	CG42561	SID104185468				6143	3.25e5	inactive
63	fl(2)d (female lethal d)	SID104187412		reporter ratio raised past the hit cutoff		7210	2.14e5	inactive
64	CG32160 (retired record)	SID104202263				3507	3.34e5	inactive
65	RNaseP:RNA (Ribonuclease P RNA)	SID104202324				5864	5.43e5	inactive
66	Atg2 (Autophagy-related 2)	SID104188065				10481	5.15e5	inactive
67	Cog8 (Component of oligomeric golgi complex 8)	SID104182753				6224	5.00e5	inactive
68	RpL31 (Ribosomal protein L31)	SID104186508				7922	3.20e5	inactive
69	Arl8 (ADP ribosylation factor-like 8)	SID104196126				7299	4.72e5	inactive
70	l(1)sc (lethal of scute)	SID104198581				6804	4.95e5	inactive
71	CG8435	SID104186971	-3			11105	4.57e5	inactive
72	CG17470	SID104182413				3.65e5	2.25e6	inactive
73	CG3713	SID104198440				7206	5.31e5	inactive
74	E(bx) (Enhancer of bithorax)	SID104187964				7283	4.67e5	inactive
75	E(bx) (Enhancer of bithorax)	SID104188301		reporter ratio raised past the hit cutoff	reporter ratio raised past the hit cutoff	11672	2.54e5	active
76	E(bx) (Enhancer of bithorax)	SID104188375		reporter ratio raised past the hit cutoff	reporter ratio raised past the hit cutoff	20973	3.13e5	active
77	XRCC1	SID104198521				7883	5.17e5	inactive
78	beat-VI (beaten path VI)	SID104194266				6464	3.92e5	inactive
79	beat-VI (beaten path VI)	SID104194519				7035	3.96e5	inactive
80	nSMase (neutral sphingomyelinase)	SID104188029				7838	5.26e5	inactive
81	Polr2C (RNA polymerase II subunit C)	SID104183207				5320	1.07e6	inactive
82	fd96Cb (forkhead domain 96Cb)	SID104196739				7282	3.55e5	inactive
83	tamo	SID104184238			reporter ratio raised past the hit cutoff	10254	1.13e6	inactive

A run of entries from the list above:
no.	gene	PubChem SID	siRNA reporter hit score	stable siRNA reporter change	miRNA reporter change	stable assay Renilla, run 1 (luminescence)	stable assay firefly, run 1 (luminescence)	outcome
9	CG13258	SID104182036				7527	4.06e5	inactive
10	CG2887	SID104198027				4727	3.84e5	inactive
11	Sys1 (Sys1 golgi trafficking protein)	SID104194164				6872	4.35e5	inactive
12	CR18275 + CR18166 + CG32817	SID104197041				6835	3.70e5	inactive
13	CG30195	SID104183947				5999	3.52e5	inactive
14	NimC3 (Nimrod C3)	SID104183348				6647	2.93e5	inactive
15	NimC3 (Nimrod C3)	SID104201971				4803	5.82e5	inactive
16	Cp110 (Centriolar coiled coil protein 110kDa)	SID104200422				6932	4.42e5	inactive
17	Cp110 (Centriolar coiled coil protein 110kDa)	SID104201390				8458	4.95e5	inactive
18	CG18754	SID104195179				7662	5.46e5	inactive
19	Cpr67Fa1 (Cuticular protein 67Fa1)	SID104190724				5091	3.20e5	inactive
